“And” between values parts separate entries of the source, which are not always exact repeats. Equal values may be shown once. In all, about 400,000 compounds went through this assay and about 3,700 (0.93%) were called active. The inconclusive results got no clear call from the source; some entries with a clear call stand among them for comparison. Calls come from the whole dose curve; as a rule, active = well fitted inhibition curve with a large enough effect; inconclusive = small, poorly fitted or top-dose-only effect, or another doubt; inactive = no such curve, though single readings can be large or run the other way. Where the call is inconclusive, the potency comes from a doubtful curve fit.
Target: Vitamin D3 receptor (Homo sapiens) (UniProt P11473)
Assay: Inhibitors of the vitamin D receptor (VDR): qHTS
Conditions: VDR-SRC2-3 peptide fluorescence polarization, 2 h; max response, negative = inhibition: hits give low values
How it was run: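 Compounds are added to VDR with labelled SRC2-3 coactivator peptide and held 2 h at room temperature. Inhibition of the VDR–peptide interaction is then read as a change in fluorescence polarization.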
% is set by controls: 0 for no effect and ±100 for the full control effect; potency is the fitted concentration of half-maximal effect.

Chains of the proteins cited; added tags and fusions are not shown. Lines headed by an entry give the natural chain unless they say otherwise; changes in a name come on top.
UniProt P11473: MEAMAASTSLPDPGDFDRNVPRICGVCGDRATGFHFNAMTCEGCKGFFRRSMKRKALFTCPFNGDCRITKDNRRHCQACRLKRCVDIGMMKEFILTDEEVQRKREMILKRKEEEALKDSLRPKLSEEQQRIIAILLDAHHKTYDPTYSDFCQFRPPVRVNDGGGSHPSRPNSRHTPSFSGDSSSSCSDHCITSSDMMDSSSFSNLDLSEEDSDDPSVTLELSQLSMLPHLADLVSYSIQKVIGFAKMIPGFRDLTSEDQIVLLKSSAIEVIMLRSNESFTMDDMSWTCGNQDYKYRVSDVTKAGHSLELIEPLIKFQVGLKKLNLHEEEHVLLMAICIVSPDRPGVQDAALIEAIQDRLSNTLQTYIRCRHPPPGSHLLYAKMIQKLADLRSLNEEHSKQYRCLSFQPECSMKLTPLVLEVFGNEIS

SMILES | Potency | max response, negative = inhibition
CCCCC/C=C\C/C=C\C/C=C\C/C=C\CCCC(=O)N(Cc1ccc(O)c(Cl)c1)Cc1ccc(O)c(Cl)c1 | active: 14.1 µM | 
NCCc1cc(O)c(O)cc1O | active: 35.5 µM and active: 56.2 µM and active: 89.1 µM | 
CN1C(=O)C(Cc2ccc(OCc3ccccc3)cc2)C(=O)N(C)C1=O | inconclusive: 44.7 µM [inhibitor, partial curve, poor fit] | 
CN(C)C(=S)SC(=S)N(C)C | active: 28.2 µM | 
O=C(Cc1ccccc1)OCCN1CCCCC1 |  | inactive: 20.6%
CC(C)(C)C(O)C(Oc1ccc(-c2ccccc2)cc1)n1cncn1 (stereo unspecified) |  | inactive: -12%
O=C(c1ccc(Cl)cc1)C1CCCN(Cc2cccc3cnccc23)C1 (stereo unspecified) | inconclusive: 79.4 µM [inhibitor, single point] | 
N#C/C(=C/c1ccc(O)c(O)c1)C(N)=S | active: 39.8 µM | 
Cc1ccc(N2C(=O)CC(=O)NC2=O)c(C)c1 | inconclusive: 79.4 µM [inhibitor, partial curve, poor fit] | 
Cc1cc(OCC(=O)NC(Cc2ccc(Cl)cc2)C(=O)O)c2c3c(c(=O)oc2c1)CCCC3 (stereo unspecified) | inconclusive: 70.8 µM [inhibitor, partial curve, poor fit] | 
CN1CCN(C(=O)COc2ccc(S(=O)(=O)NCc3ccccc3)cc2Cl)CC1 |  | inactive: -8.55%
CO/C1=C\C(C)=C\[C@@H](C)[C@@H](O)[C@@H](C)C/C(C)=C/C=C/[C@H](OC)[C@@H]([C@@H](C)[C@@H](O)[C@H](C)[C@@]2(O)C[C@@H](O)[C@H](C)C(C(C)C)O2)OC1=O (stereo partly specified) | inconclusive: 50.1 µM [inhibitor, partial curve] | 
COC([CH2][Hg])CNC(=O)c1ccccc1OCC(=O)O (stereo unspecified) | active: 5.62 µM | 
CN1CCN(c2ccc([N+](=O)[O-])cc2Cl)CC1 |  | inactive: -27.6%
CCOC(=O)c1sc(/N=C/c2c(O)n(-c3cccc(C)c3)c(=O)[nH]c2=O)c(C#N)c1C | inconclusive: 56.2 µM [inhibitor, partial curve, poor fit] | 
O=C(/C=C/c1ccc(Cl)cc1)N[C@@]12CCC(=O)[C@@H]3Oc4c(O)ccc5c4[C@@]31CCN(CC1CC1)C2C5 |  | inactive: 0.615%
Cc1ccc(N2C(=O)NC(=O)/C(=C/c3ccc(OC(=O)c4cccs4)cc3)C2=O)cc1 | inconclusive: 89.1 µM [inhibitor, partial curve, poor fit] | 
COC(=O)C[C@]1(C(=O)OC)CN(C#N)N(c2ccc(Cl)cc2)C12c1ccccc1-c1ccccc12 | active: 20 µM | 
S=C(c1ccc(Cl)cc1)N1CCOCC1 | inconclusive: 79.4 µM [inhibitor, partial curve] | 
Nc1c(Br)cc2c3c(cccc13)-c1ccccc1-2 | active: 28.2 µM | 
CCOC(=O)c1c(NS(=O)(=O)c2ccccc2)n(CCCOC)c2nc3ccccc3nc12 | inconclusive: 28.2 µM [inhibitor, partial curve, poor fit] | 

SMILES | Potency | max response, negative = inhibition
CN1CCC(O)(c2ccccc2)C(C(=O)c2ccccc2)C1 (stereo unspecified) | inconclusive: 100 µM [inhibitor, single point] | 
O=C1NC(=O)C(=Cc2coc3ccccc3c2=O)C(=O)N1 | inconclusive: 22.4 µM [inhibitor, partial curve, poor fit] | 
CC1(C)N(O)C(c2ccc(C(=O)O)cc2)=[N+]([O-])C1(C)C | inconclusive: 89.1 µM [inhibitor, single point] | 
COC(=O)N(c1ccc(OC)cc1)P1(=S)OCCC(C)O1 (stereo unspecified) | inconclusive: 22.4 µM [inhibitor, full curve, poor fit] | 
CC(C)CN1CC[C@@]2(CCCN(C(=O)Oc3ccccc3)C2)C1 | inconclusive: 79.4 µM [inhibitor, single point] | 
CC(=O)OC1CCC2(C)C3=C(CCC2C1(C)C)[C@]1(C)CCC(C(C)CCC=C(C)C)[C@]1(C)CC3 (stereo partly specified) | inconclusive: 39.8 µM [inhibitor, partial curve] | 
N#CC(C#N)=Cc1cccnc1 | inconclusive: 50.1 µM [inhibitor, partial curve, poor fit] | 
CC(C)(c1ccc(OCC2CO2)cc1)c1ccc(OCC2CO2)cc1 (stereo unspecified) | inconclusive: 35.5 µM [inhibitor, partial curve, poor fit] and inconclusive: 100 µM [inhibitor, single point] | 
COc1ccc(/C=C/C=C2C(=O)NC(=S)NC2=O)cc1 | inconclusive: 79.4 µM [inhibitor, partial curve, poor fit] | 
COc1ccccc1N1CCN(Cc2ccccc2F)CC1 |  | inactive: -3.03%
COc1ccc(-n2c(SC)nc3ccccc3c2=O)cc1 |  | inactive: 11.7%
N#CC1=C(N)Oc2c(c(=O)oc3ccccc23)C1c1ccc([N+](=O)[O-])o1 (stereo unspecified) | inconclusive: 70.8 µM [inhibitor, single point] | 
COc1cc(CN2CC3CC(C2)c2cccc(=O)n2C3)cc(OC)c1OC (stereo unspecified) |  | inactive: 1.57%
O=C(N/N=C/c1c(O)n(CCC2=CCCCC2)c(=S)[nH]c1=O)c1ccccc1 | inconclusive: 79.4 µM [inhibitor, partial curve] | 
Cc1ccc(Cn2cccc(C(=O)Nc3ccc4c(c3)OCCO4)c2=O)cc1 |  | inactive: 20.9%
CC1CCC2[C@@H](C)C(=O)OC3O[C@]4(C)CCC1C32OO4 (stereo partly specified) |  | inactive: 2.34%
O=c1[nH]c(=O)n(CCC2=CCCCC2)c(O)c1/C=N/Nc1cccc2ccccc12 | inconclusive: 31.6 µM [inhibitor, single point] | 
CCC(C)n1c(O)c(C=NC(C)c2ccccc2)c(=O)[nH]c1=S (stereo unspecified) |  | inactive: -1.07%
O=C(O)Cn1cc(/C=C2\C(=O)NC(=O)N(c3ccc(Br)cc3)C2=O)c2ccccc21 | inconclusive: 56.2 µM [inhibitor, partial curve, poor fit] | 
CCCc1[nH][nH]c(=O)c1C(c1ccccc1)C(C#N)C#N (stereo unspecified) | inconclusive: 89.1 µM [inhibitor, single point] | 

Looked up above.
Potency with CC(=O)OC1CCC2(C)C3=C(CCC2C1(C)C)[C@]1(C)CCC(C(C)CCC=C(C)C)[C@]1(C)CC3 (stereo partly specified) is entered as inconclusive: 39.8 µM [inhibitor, partial curve]
max response, negative = inhibition with COc1ccccc1N1CCN(Cc2ccccc2F)CC1 is entered as inactive: -3.03%
Potency with N#CC(C#N)=Cc1cccnc1 is entered as inconclusive: 50.1 µM [inhibitor, partial curve, poor fit]
Potency with O=C(O)Cn1cc(/C=C2\C(=O)NC(=O)N(c3ccc(Br)cc3)C2=O)c2ccccc21 is entered as inconclusive: 56.2 µM [inhibitor, partial curve, poor fit]

Reference: PubChem BioAssay AID504847 (National Center for Advancing Translational Sciences (NCATS), 2011)
